Data taken from paper PMC11476688.
No constants are given. Whether binding was seen depends on the method and setting. In cells and extracts the contact can be indirect. A result given as binding can be weak or reduced; the word gives no strength. Tags and fused reporters may be left off the sequences shown.

Target: T1, EGFP-TRIM56 (UniProt Q9BRZ2)
T1 sequence: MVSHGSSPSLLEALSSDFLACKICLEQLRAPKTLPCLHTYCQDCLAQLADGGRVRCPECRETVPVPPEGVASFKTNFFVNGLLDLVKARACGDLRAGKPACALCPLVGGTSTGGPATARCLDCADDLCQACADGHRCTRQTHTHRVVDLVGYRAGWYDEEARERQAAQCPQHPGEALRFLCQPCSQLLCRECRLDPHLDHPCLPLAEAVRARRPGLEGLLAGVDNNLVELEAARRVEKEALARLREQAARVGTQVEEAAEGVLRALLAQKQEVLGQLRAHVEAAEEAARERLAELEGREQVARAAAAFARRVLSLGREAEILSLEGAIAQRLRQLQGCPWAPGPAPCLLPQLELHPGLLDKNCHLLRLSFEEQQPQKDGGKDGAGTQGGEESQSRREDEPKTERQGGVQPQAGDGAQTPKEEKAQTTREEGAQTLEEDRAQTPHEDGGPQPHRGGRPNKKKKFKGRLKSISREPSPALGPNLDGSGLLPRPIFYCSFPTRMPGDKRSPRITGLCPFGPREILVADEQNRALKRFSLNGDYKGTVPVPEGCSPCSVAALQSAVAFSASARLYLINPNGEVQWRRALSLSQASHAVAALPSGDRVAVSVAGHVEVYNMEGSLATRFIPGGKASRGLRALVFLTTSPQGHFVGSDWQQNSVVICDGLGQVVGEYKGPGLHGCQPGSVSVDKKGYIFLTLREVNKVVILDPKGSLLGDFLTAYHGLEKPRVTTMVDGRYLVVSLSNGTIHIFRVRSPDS
Assay: co-IP; HEK293T co-transfected with pEGFP-TRIM56 and pFlag-3D or pFlag-3D-K220R; undenatured lysate; immunomagnetic beads with anti-EGFP antibody, room temperature 1 h, 10 washes; immunoblotting

Row | Substance | binding
1 | Flag-tagged 3D of CVB3 (Coxsackievirus B3 (CVB3)) (enzyme) | binds
2 | Flag-3D-K220R (Coxsackievirus B3 (CVB3)) (enzyme) | binds
